{"source": "patent US6524842B1", "about": "“Biodegradation of gasoline oxygenates” (Envirogen, Inc., priority 2000, dated 2003)", "system": "strain ENV735", "assay": "MTBE degradation assays with ENV735 cells", "assay_type": "cell-based, Hydrogenophaga flava", "note": "Some results come without the dose or concentration used."}
{"compound": "COC(C)(C)C", "note": "[MTBE, methyl-tert-butyl ether]", "values": [{"measurement": "MTBE concentration that ENV735 was able to degrade", "setting": "concentrations as great as", "result": "≤ 3000", "unit": "mg/L"}, {"measurement": "pH optimum for MTBE degradation", "setting": "strain ENV735", "result": 7.0}]}
